According to the supplement of paper PMC12823440, “Inhibitors supercharge kinase turnover through native proteolytic circuits” (Nature, 2025):
Structures can show the parent of a compound that is named as a salt. The list shows a part of the results. Hit calls seldom repeat between salt and free forms of one compound.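 Kinases, fused to nanoluciferase, were expressed in K562 cells; luminescence was measured every 4 h from 2 to 18 h as percent of control (DMSO = 100%, positive control = 0%). A time point is decreased if signal falls significantly (2 sigma). Hits were called by the authors by a rule that is not shown; the count of time points alone does not decide it.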

Sequences of proteins named here, by UniProt entry; tags and fusion partners are left off. A change or cut given only in a name is not applied to a line headed by its entry.
UniProt Q13555: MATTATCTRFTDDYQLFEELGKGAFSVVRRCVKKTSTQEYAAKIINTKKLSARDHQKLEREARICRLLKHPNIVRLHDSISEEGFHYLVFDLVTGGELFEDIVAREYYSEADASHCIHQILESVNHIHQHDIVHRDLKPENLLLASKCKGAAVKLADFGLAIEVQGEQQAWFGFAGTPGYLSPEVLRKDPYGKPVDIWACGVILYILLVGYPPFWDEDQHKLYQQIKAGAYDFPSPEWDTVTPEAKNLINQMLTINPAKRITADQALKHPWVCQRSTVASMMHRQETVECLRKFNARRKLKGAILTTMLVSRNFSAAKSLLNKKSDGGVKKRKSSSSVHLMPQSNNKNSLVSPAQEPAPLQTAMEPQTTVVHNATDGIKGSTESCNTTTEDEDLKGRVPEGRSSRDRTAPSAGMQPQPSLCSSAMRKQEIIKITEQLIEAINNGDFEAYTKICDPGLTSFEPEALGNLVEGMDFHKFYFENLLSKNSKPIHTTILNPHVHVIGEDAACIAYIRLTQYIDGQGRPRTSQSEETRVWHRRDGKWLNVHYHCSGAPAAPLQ
UniProt Q15131: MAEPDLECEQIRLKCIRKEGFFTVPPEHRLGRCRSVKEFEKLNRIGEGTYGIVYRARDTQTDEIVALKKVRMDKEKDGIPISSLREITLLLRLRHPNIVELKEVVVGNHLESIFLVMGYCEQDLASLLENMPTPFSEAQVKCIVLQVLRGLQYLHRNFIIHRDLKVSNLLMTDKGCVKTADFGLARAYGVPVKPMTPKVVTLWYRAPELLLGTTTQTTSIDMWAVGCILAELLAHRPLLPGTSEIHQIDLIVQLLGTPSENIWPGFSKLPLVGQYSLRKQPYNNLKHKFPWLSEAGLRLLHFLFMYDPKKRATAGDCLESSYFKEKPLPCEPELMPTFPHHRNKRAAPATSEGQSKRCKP
UniProt Q00526: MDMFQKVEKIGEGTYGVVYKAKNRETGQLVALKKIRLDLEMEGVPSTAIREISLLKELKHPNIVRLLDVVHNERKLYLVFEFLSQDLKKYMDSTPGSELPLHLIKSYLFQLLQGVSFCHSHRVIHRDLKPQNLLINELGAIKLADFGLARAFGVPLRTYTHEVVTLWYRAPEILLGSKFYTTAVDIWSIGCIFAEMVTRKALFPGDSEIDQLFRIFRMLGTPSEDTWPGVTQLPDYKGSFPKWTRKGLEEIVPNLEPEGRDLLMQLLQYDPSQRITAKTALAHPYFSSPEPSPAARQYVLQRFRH
UniProt Q00535, whole entry, looked up: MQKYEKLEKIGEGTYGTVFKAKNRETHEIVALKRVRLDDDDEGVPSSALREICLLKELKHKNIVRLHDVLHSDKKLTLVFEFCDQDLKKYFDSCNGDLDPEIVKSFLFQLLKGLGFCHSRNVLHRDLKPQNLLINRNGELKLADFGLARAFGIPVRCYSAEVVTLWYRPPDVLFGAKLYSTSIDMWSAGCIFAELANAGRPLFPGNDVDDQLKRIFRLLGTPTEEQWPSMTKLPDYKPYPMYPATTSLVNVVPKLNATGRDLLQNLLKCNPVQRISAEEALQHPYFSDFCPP
UniProt O96017, whole entry: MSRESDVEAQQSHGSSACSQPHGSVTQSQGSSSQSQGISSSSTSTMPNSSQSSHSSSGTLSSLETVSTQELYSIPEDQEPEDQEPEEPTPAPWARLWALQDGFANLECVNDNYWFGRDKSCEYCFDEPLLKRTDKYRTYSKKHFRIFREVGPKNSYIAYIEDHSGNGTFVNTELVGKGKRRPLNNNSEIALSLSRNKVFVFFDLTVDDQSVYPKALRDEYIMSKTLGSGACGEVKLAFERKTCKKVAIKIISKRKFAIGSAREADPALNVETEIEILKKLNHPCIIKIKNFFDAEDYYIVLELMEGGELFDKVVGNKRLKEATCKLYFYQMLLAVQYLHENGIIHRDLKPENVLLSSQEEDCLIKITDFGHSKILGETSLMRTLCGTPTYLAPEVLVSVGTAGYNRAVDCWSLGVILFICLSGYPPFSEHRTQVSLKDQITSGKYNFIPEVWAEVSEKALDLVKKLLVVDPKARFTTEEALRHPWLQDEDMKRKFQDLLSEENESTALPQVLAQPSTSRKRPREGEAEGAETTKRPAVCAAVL
UniProt P07333, whole entry: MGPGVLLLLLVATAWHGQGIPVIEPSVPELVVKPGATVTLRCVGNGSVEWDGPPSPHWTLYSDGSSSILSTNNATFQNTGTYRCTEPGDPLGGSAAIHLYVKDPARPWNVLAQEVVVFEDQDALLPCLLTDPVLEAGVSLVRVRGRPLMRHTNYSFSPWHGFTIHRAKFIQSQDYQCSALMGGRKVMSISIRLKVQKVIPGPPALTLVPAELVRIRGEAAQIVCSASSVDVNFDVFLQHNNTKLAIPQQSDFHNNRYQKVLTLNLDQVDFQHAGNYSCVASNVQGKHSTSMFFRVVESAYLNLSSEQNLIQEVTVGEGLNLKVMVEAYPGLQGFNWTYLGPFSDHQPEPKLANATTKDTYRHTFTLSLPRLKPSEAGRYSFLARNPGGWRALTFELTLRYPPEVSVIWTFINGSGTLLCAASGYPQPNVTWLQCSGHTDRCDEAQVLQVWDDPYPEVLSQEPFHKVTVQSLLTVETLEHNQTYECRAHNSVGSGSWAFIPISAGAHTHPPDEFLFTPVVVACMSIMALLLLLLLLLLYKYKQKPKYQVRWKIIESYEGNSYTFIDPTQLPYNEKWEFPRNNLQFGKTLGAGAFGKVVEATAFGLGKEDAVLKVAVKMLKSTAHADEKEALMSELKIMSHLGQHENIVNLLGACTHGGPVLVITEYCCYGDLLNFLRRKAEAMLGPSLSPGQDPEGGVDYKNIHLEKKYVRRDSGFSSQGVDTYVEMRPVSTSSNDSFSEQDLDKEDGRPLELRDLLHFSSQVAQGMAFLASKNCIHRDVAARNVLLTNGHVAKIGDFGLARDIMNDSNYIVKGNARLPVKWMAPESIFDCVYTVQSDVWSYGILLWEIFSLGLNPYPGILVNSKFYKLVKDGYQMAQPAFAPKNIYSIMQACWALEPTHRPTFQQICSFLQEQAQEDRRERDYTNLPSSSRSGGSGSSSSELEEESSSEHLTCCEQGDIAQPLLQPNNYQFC
UniProt P41240: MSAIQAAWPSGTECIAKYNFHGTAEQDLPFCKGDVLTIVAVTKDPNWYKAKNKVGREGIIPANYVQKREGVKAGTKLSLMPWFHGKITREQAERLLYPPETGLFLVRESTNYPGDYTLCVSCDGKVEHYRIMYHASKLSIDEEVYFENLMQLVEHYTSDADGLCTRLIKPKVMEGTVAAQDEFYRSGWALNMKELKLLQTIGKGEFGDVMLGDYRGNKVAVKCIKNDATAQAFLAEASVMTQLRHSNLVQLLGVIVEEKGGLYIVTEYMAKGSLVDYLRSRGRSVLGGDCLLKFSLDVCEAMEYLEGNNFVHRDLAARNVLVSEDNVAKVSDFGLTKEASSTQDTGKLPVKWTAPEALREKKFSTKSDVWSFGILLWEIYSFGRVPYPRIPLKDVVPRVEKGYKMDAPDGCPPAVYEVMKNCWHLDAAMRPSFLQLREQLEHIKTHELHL
UniProt P48729: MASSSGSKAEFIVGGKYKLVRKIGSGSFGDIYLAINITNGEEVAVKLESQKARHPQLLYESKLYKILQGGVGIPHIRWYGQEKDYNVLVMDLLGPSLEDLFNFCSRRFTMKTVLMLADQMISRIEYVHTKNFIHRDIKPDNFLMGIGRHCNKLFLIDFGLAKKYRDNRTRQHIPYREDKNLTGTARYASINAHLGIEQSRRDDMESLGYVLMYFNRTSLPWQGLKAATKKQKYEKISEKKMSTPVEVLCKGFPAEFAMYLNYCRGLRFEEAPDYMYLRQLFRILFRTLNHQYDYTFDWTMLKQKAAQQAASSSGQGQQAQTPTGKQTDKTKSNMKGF
UniProt P48730: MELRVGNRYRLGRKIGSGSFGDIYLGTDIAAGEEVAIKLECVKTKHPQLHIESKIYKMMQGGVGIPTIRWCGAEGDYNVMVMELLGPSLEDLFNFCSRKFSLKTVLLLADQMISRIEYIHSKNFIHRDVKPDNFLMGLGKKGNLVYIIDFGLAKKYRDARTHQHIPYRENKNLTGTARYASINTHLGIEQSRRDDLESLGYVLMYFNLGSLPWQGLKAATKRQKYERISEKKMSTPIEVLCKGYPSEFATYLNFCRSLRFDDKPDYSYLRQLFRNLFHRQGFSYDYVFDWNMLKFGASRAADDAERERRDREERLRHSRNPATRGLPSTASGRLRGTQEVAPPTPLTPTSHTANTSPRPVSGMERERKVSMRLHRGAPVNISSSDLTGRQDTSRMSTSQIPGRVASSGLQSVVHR
UniProt Q08345: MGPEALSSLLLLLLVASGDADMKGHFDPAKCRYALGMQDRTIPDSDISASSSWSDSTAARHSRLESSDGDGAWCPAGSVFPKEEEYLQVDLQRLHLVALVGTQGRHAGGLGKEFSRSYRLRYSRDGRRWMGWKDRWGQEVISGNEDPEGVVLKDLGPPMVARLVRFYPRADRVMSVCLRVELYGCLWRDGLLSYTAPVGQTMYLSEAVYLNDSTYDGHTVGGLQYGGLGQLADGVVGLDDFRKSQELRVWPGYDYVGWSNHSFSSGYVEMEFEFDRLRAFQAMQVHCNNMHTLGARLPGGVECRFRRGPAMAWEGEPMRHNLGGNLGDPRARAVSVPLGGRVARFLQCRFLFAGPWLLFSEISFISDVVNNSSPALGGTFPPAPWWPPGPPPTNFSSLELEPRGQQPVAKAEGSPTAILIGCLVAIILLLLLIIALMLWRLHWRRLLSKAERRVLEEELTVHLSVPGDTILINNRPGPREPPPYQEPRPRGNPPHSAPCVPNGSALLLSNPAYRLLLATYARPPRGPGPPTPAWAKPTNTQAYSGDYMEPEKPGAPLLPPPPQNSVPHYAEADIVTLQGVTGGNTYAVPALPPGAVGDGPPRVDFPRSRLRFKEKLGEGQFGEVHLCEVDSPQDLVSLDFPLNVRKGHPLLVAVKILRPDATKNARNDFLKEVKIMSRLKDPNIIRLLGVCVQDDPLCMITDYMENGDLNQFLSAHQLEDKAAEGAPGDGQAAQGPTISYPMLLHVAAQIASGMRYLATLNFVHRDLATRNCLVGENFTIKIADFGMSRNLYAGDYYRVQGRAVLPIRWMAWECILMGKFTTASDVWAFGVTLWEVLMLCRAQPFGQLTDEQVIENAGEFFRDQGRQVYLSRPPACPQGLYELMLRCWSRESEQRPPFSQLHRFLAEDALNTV
UniProt Q9Y463, whole entry, looked up: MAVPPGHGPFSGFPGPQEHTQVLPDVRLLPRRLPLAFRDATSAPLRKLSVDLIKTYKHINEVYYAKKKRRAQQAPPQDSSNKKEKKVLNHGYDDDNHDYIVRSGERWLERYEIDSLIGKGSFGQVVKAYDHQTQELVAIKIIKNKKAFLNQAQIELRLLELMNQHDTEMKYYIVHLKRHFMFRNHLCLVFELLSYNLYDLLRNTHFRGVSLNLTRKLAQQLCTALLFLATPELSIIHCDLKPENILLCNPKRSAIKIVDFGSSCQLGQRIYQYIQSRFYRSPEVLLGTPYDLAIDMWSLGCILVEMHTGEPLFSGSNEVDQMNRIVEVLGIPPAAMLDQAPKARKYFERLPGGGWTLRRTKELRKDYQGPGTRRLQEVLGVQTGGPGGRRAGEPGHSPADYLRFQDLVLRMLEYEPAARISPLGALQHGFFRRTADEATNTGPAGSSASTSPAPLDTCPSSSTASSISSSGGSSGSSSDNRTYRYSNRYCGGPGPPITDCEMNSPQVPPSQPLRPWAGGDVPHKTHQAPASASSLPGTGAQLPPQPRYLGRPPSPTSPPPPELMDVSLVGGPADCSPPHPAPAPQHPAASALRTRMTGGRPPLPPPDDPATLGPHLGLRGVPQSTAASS
UniProt Q92630: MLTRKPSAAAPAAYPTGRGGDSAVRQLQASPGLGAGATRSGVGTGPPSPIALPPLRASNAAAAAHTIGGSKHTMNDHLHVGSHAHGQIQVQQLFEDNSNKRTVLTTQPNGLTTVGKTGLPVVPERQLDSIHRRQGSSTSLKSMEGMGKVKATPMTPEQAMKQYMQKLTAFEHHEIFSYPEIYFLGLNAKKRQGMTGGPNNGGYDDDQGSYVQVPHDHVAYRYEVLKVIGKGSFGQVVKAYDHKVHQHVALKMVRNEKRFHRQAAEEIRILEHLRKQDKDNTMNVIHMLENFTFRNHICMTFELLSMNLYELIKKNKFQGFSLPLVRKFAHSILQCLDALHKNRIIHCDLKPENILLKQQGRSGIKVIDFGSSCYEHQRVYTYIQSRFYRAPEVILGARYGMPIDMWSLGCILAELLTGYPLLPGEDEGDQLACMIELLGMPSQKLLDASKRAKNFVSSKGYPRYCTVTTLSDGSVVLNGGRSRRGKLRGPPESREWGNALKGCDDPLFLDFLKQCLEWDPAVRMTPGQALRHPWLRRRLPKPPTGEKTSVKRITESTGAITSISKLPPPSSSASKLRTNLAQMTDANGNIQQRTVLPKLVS

Columns and labels:
Assay in all cases: number of time points (of 5) at which kinase-Nluc abundance scored as decreased, DMSO-normalised (count); higher = more persistent destabilization
Settings in all cases: K562; 2-18 h
CAMK2A = CAMK2A (UniProt Q9UQM7)
CAMK2G = CAMK2G (UniProt Q13555)
CDK10 = CDK10 (UniProt Q15131)
CDK2 = CDK2 (UniProt P24941)
CDK3 = CDK3 (UniProt Q00526)
CDK5 = CDK5 (UniProt Q00535)
CDK6 = CDK6 (UniProt Q00534)
CHEK2 = CHEK2 (UniProt O96017)
CSF1R = CSF1R (UniProt P07333)
CSK = CSK (UniProt P41240)
CSNK1A1 = CSNK1A1 (UniProt P48729)
CSNK1D = CSNK1D (UniProt P48730)
DDR1 = DDR1 (UniProt Q08345)
DYRK1B = DYRK1B (UniProt Q9Y463)
DYRK2 = DYRK2 (UniProt Q92630)
EGFR = EGFR (UniProt P00533)
EGFR_G719S = EGFR_G719S (UniProt P00533)
EGFR_G719S_T790M = EGFR_G719S_T790M (UniProt P00533)
EGFR_L718V = EGFR_L718V (UniProt P00533)
EGFR_L858R = EGFR_L858R (UniProt P00533)

Measured: number of time points

O=C(Nc1ccc(Cl)c(Cl)c1)Nc1ccc2nnsc2c1 (10 µM)
0: all assays above

CCc1c(C)sc(NC(=S)NC(=O)c2ccc(Cl)cc2)c1C(N)=O (10 µM)
0: all assays above

COc1ccc(CNc2nc(N(CCO)CCO)nc3c2ncn3C(C)C)cc1 (2.5 µM)
0: all assays above

CC(C)(C)Cn1c(N)nc2ccc(-c3[nH]c(C(C)(C)C)nc3-c3ccc(F)cc3)nc21 [Ralimetinib dimesylate] (2.5 µM)
0: all assays above

C=CC(=O)N1CCC(Oc2cc3c(Nc4ccc(Cl)c(Cl)c4F)ncnc3cc2OC)CC1 [Poziotinib] (2.5 µM)
0: all assays above

O=C1NCCCc2c1oc1ccc(O)cc21 (10 µM)
0: all assays above

CCN1/C(=C/C(C)=O)Sc2ccc(OC)cc21 (10 µM)
1: CAMK2G | CDK3 | EGFR_G719S_T790M | EGFR_L718V | EGFR_L858R
2: CHEK2 | DYRK2
0: all other assays above

CC(C)n1cnc2c(Nc3cccc(Cl)c3)nc(NCCO)nc21 (10 µM)
1: DYRK2
0: all other assays above

CCCCNC(=N)NC(=N)N [Buformin (hydrochloride)] (2.5 µM)
0: all assays above

CC(C)c1cc(/C=C(\C#N)C(N)=O)cc(C(C)C)c1O (10 µM)
0: all assays above

COc1nc(-c2ccnc(NC(=O)C3CC3)c2)sc1C(N)=O [GSK-3β inhibitor 2] (10 µM)
1: EGFR_G719S
0: all other assays above

COc1ccc2c(c1)c(C1=C(c3c[nH]c4ccccc34)C(=O)NC1=O)cn2CCCN(C)C (10 µM)
0: all assays above

O=c1ccc2ccc(O)c(O)c2o1 [Daphnetin] (10 µM)
0: all assays above

CC[C@H](C)[C@H](NC(=O)[C@H](CCC(=O)O)NC(=O)[C@H](CCCN=C(N)N)NC(=O)[C@H](CCCN=C(N)N)NC(=O)[C@@H](N)CCCCN)C(=O)N[C@@H](CC(C)C)C(=O)N[C@@H](CO)C(=O)N[C@@H](CCCN=C(N)N)C(=O)N[C@@H](CCCN=C(N)N)C(=O)N1CCC[C@H]1C(=O)N[C@@H](CO)C(=O)N[C@@H](Cc1ccc(O)cc1)C(=O)N[C@@H](CCCN=C(N)N)C(=O)O [CREBtide] (10 µM)
0: all assays above

O=C(O)c1ccc(N2N=C(Cc3ccccc3)C(=Cc3ccc(-c4ccccc4F)o3)C2=O)cc1 (10 µM)
0: all assays above

CC(=O)Nc1nc2ccc(-c3cnc(C)c(NC(=O)OC4CCCCC4)c3)cc2s1 (10 µM)
1: DDR1
0: all other assays above

Cc1nc(NC(=O)NCCc2nnn(CCF)n2)sc1-c1ccc(S(C)(=O)=O)c(F)c1 (10 µM)
0: all assays above

Cc1cc(Nc2nc(N[C@@H](C)c3ncc(F)cn3)ncc2Cl)[nH]n1 (10 µM)
0: all assays above

Cc1cnc(Nc2ccc(N3CCN(C)CC3)cc2)nc1Nc1cccc(S(=O)(=O)NC(C)(C)C)c1 (2.5 µM)
1: EGFR_L858R
0: all other assays above

COc1cnccc1Nc1nc(-c2nn(Cc3c(F)cc(OCCO)cc3F)c3ccccc23)ncc1OC (10 µM)
0: all assays above

COC(=O)[C@@]1(C)CC[C@]2(C(=O)O)CC[C@]3(C)C(=CC[C@@H]4[C@@]5(C)C[C@H](O)[C@H](O[C@@H]6OC[C@@H](O[C@@H]7O[C@H](CO)[C@@H](O)[C@H](O)[C@H]7O)[C@H](O)[C@H]6O)[C@@](C)(CO)[C@@H]5CC[C@]43C)[C@@H]2C1 [Esculentoside A] (10 µM)
0: all assays above

Nc1n[nH]c2cc(-c3ccc(=O)n(Cc4cccc(Cl)c4)c3)ccc12 (10 µM)
1: CDK6
0: all other assays above

Cn1cc(-c2cc3c(N4CCN(c5ncc([C@@](C)(N)c6ccc(F)cc6)cn5)CC4)ncnn3c2)cn1 [Avapritinib] (2.5 µM)
0: all assays above

COc1ncc(Nc2ncc([C@@H](C)N3CCN(S(C)(=O)=O)CC3)cc2-c2nc(C)nc(N)n2)cc1F (10 µM)
0: all assays above

O=C(c1ccc(Nc2nccc(-c3cc4ccccc4s3)n2)cc1)N1CCC(N2CCCC2)CC1 (2.5 µM)
0: all assays above

O=C(O)c1cc(O)c2c(c1)[C@@H]([C@H]1c3cc(C(=O)O)cc(O)c3C(=O)c3c(O[C@@H]4O[C@H](CO)[C@@H](O)[C@H](O)[C@H]4O)cccc31)c1cccc(O[C@@H]3O[C@H](CO)[C@@H](O)[C@H](O)[C@H]3O)c1C2=O [Sennoside B] (2.5 µM)
0: all assays above

CCN1C(=O)CNc2ncc(-c3ccc(-c4nc[nH]n4)nc3C)nc21 [CC-115 (hydrochloride)] (2.5 µM)
2: DYRK1B | EGFR | EGFR_G719S | EGFR_G719S_T790M
4: DDR1 | DYRK2
3: CAMK2G | CSF1R | CSNK1A1 | CSNK1D | EGFR_L858R
1: CDK6 | CHEK2 | EGFR_L718V
0: all other assays above

N=C(N)NC(=N)NCCc1ccccc1 [Phenformin (hydrochloride)] (10 µM)
0: all assays above

N#C/C(=C\c1ccc2oc(=O)[nH]c2c1)C(=O)c1ccc(O)c(O)c1 (10 µM)
0: all assays above

Cc1ccc(-c2ccc3c(ccc4sc5c(c43)NC[C@@H](C)NC5=O)n2)cn1 (10 µM)
0: all assays above

COc1cc2ncnc(Nc3ccc(NC(=O)c4ccccc4)cc3)c2cc1OC [Aurora kinase inhibitor-2] (2.5 µM)
0: all assays above

O=c1cc(-c2ccc(O)c(O)c2O)oc2ccccc12 (10 µM)
0: all assays above

Arranged by number of heavy atoms (rising): 3 of the compounds above.
O=c1cc(-c2ccc(O)c(O)c2O)oc2ccccc12 (10 µM)
0: all assays above

Cc1ccc(-c2ccc3c(ccc4sc5c(c43)NC[C@@H](C)NC5=O)n2)cn1 (10 µM)
0: all assays above

COc1cc2ncnc(Nc3ccc(NC(=O)c4ccccc4)cc3)c2cc1OC [Aurora kinase inhibitor-2] (2.5 µM)
0: all assays above

The results go on.

COc1cc(N2CCC(N3CCN(C)CC3)CC2)ccc1Nc1nc2c(c(Nc3ccccc3S(=O)(=O)NC(C)C)n1)CCN2 [Conteltinib] (10 µM)
1: DDR1
0: all other assays above

O=S(=O)(c1cccc2cnccc12)N1CCNCC1 (10 µM)
0: all assays above

c1cc(-c2cnn3cc(-c4ccc(N5CCNCC5)cc4)cnc23)c2cccnc2c1 (2.5 µM)
2: CDK10 | EGFR_G719S
4: DDR1
1: CSNK1A1
0: all other assays above

Cc1cc(C(C)Nc2ccccc2)c2nc(N3CCOCC3)cc(=O)n2c1 (stereo not given) (10 µM)
0: all assays above

CC(CCc1ccccn1)(CCc1ccccn1)C(=O)c1ccccc1 (10 µM)
0: all assays above

CCCCCCCC/C=C\CCCCCCCC(=O)NCC(=O)O [N-Oleoyl glycine] (10 µM)
0: all assays above

COc1c(O)cc2oc3cc(O)c(CC=C(C)C)c(O)c3c(=O)c2c1CCC(C)(C)O [Garcinone D] (2.5 µM)
0: all assays above

COc1ccc2c(c1OC)OC1c3ccc(O)cc3OCC21 (stereo not given) [Methylnissolin] (10 µM)
0: all assays above

CCOc1c([C@H](C)n2nc(C)c3c(N)ncnc32)cc(Cl)c(F)c1[C@@H]1CNC(=O)C1 [Parsaclisib (hydrochloride)] (10 µM)
0: all assays above

COc1ccc2c(Oc3ccc(NC(=O)c4c(C)n(CC(C)(C)O)n(-c5ccccc5)c4=O)cc3F)ccnc2c1 (2.5 µM)
3: DYRK2
1: DYRK1B
0: all other assays above

CC(=O)Nc1nc(C)c(-c2nc(N3CCCC(O)C3)no2)s1 (stereo not given) (10 µM)
0: all assays above

CN1C(=O)NC(Cc2c[nH]c3c(Cl)cccc23)C1=O (racemic) [Necrostatin 2 (racemate)] (10 µM)
0: all assays above

NC(=O)c1ccc(-c2cnn3ccc(NCc4cccnc4)nc23)cc1 (2.5 µM)
0: all assays above

C=CC(=O)N1CCC[C@@H](n2nc(C(=O)Nc3ccc(CC(=O)N(C)C)c(C)c3C)c3c(N)ncnc32)C1 (10 µM)
0: all assays above

CCN(C)C(=O)c1ccc2c(C(=Nc3ccc(CN4CCCCC4)cc3)c3ccccc3)c(O)[nH]c2c1 (2.5 µM)
0: all assays above

CC(C)(C)C(=O)N1N=CC[C@H]1c1ccccc1 (10 µM)
0: all assays above
